Results reported in PubChem BioAssay AID1347076 (National Center for Advancing Translational Sciences (NCATS), 2019).
Screen size: about 400,000 compounds; about 13,000 (3.2%) were called active. Inconclusive means that the source gave no clear call. Such entries were picked first, then a sample of the others. Calls follow the shape of the dose curve; as a rule, active = well fitted cell-killing curve with a large enough effect; inconclusive = small, poorly fitted or top-dose-only effect, or effect the other way; inactive = flat fitted curve, though single readings scatter. Potencies beside an inconclusive call are fits to weak or partial responses and may not hold up.

Assay: qHTS assay for MDR1-selective chemotherapeutics: Primary screen using the drug-selected MDR subline cells KB-V1; also: nearly all actives have a fitted effect of over 60% in size
Conditions: KB-V1 MDR cells viability, CellTiter-Glo, 72 h; activity change, negative = cytotoxicity: at 46.1 µM (top of the series)
Outline: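 Compound-treated KB-V1 multidrug-resistant cells, 72 h, 37 degrees C; viability by CellTiter-Glo. Fitted qHTS curves give the values.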
% is scaled to controls: 0 for no effect and ±100 for the full control effect; potency is read from the fitted curve at half-maximal effect.

Structure (SMILES)	activity change, negative = cytotoxicity	Potency
CCC1=CC(c2ccccc2)n2ncnc2N1 (centres undefined)	inconclusive: 9.25%	–
COc1ccccc1-c1cc2nc(C)cc(C)n2n1	–	inconclusive: 29.1 µM [cytotoxic, single point]
CC(=O)n1c(=O)c2ccccc2c(=O)n1-c1ccccc1	inactive: 23.7%	–
O=C(CSc1nc2ccsc2c(=O)n1CC1CCC(C(=O)O)CC1)NCCc1ccc(Cl)cc1 (centres undefined)	–	inconclusive: 29.1 µM [rising, single point]
CCC/C(O)=C1\C(=O)CCCC1=NCCc1ccc(OCC)c(OCC)c1	–	inconclusive: 6.51 µM [cytotoxic, partial curve]
Cc1c(C(=O)Nc2ccc(F)cc2)oc2ccc(S(=O)(=O)N3CCC4(CC3)OCCO4)cc12	–	inconclusive: 25.1 µM [cytotoxic, single point]
CCOC(=O)C1(Cc2cccc(Cl)c2)CCCN(C(=O)c2ccc(C)nc2)C1 (centres undefined)	–	inconclusive: 6.51 µM [cytotoxic, partial curve]
Cc1ccc(CNC(=O)c2cc3c(s2)-c2ccc(Cl)cc2SC3)cc1	inactive: -0.993%	–
COc1ccc(-c2nnn(CC(=O)N3CCN(c4ccccc4OC)CC3)n2)cc1OC	–	inconclusive: 10.3 µM [cytotoxic, partial curve, poor fit]
CCCCSC1=N/C(=C/c2ccsc2)C(=O)N1c1ccccc1	–	active: 16.4 µM
CC1CCN(C(=O)CCc2ccc(S(=O)(=O)NC(C)(C)C)cc2)CC1	–	inconclusive: 23.1 µM [cytotoxic, single point]
Oc1cccc(/C=N/c2c(-c3ccco3)nc3ccccn23)c1	–	inconclusive: 16.4 µM [cytotoxic, single point]
O=C(CCN1CCOCC1)Nc1cc(C(=O)Nc2ccccc2F)ccc1N1CC2CC(C1)c1cccc(=O)n1C2 (centres undefined)	–	inconclusive: 29.1 µM [rising, single point]
COc1cc(NC(=S)NC(C)(C)C)c(OC)cc1Cl	inactive: -26.8%	–
CCOC(=O)CSc1n[nH]c(-c2cccnc2)n1	–	inconclusive: 29.1 µM [rising, single point]
O=C(CNC(=O)N1CC(=O)Nc2ccccc21)Nc1cccc(F)c1	inconclusive: 31.4%	–
CC1CC(=O)N(CC(=O)Nc2ccc(F)cc2F)c2ccccc2S1 (centres undefined)	–	inconclusive: 16.4 µM [cytotoxic, single point]
CCN(CC)c1ccc(/C=N/NC(=O)c2c(Cl)cnn2C)c(O)c1	–	inconclusive: 2.59 µM [cytotoxic, partial curve, poor fit]
Cc1cc(C)c(CN2CCN(C(=O)Cn3ccc(N)nc3=O)CC2)c(C)c1	inactive: 20.5%	–

2 of the compounds above, in CSV form:
Structure (SMILES),"activity change, negative = cytotoxicity",Potency
Cc1c(C(=O)Nc2ccc(F)cc2)oc2ccc(S(=O)(=O)N3CCC4(CC3)OCCO4)cc12,–,"inconclusive: 25.1 µM [cytotoxic, single point]"
O=C(CCN1CCOCC1)Nc1cc(C(=O)Nc2ccccc2F)ccc1N1CC2CC(C1)c1cccc(=O)n1C2 (centres undefined),–,"inconclusive: 29.1 µM [rising, single point]"
